One substance from paper PMC11831439 can be followed below.

Sequences of proteins named here, by UniProt entry; tags and fusion partners are left off. Residues count along the entry.
UniProt Q9NZQ7, residues 19-290: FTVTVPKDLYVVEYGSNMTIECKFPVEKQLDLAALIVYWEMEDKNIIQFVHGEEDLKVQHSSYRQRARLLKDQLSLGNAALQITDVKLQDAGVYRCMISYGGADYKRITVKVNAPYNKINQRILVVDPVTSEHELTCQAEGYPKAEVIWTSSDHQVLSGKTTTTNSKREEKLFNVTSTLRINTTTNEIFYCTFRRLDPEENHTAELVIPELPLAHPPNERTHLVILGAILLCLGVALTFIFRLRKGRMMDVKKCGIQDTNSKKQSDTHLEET
UniProt Q92905: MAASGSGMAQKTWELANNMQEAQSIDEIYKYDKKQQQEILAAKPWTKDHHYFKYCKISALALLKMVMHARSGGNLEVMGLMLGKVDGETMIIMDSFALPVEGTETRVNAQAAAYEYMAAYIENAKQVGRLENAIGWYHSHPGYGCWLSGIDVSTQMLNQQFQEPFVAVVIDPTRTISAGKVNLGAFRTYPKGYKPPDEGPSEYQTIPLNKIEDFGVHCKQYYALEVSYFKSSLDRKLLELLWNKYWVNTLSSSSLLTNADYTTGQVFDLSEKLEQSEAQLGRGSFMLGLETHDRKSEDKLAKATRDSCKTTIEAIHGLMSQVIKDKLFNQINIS

In this assay the target is PD-L1 (programmed death-ligand 1), in the immunoprecipitation with CSN5 (UniProt Q9NZQ7). The assay can be described thus: co-IP; immunoprecipitation from cell lysate with immunoblot; cells and bait not told for this experiment (general IP method: IgG or PD-L1 antibody overnight at 4 °C, protein A/G beads).

No constants are given. Whether binding was seen depends on the method and setting. Binding seen in cells or lysates may run through a third protein. Some entries that bind do so weakly or less than the wild type.

As for “CSN5 (from UniProt Q92905 1-334) (enzyme)”, the binding result is reported as “binds”.
